Results published in US20240216376A1, “COMBINATION THERAPIES FOR THE TREATMENT OF CANCER” (Duke University, priority 2021, published 2024).
Some entries share one result that the patent states for a list of compounds.

Tested on: MLL-AF9 syngeneic murine model of AML
Test: MLL-AF9 syngeneic murine model of AML
Assay type: in vivo, mice
Details: selinexor 15 mg/kg and/or ipatasertib 65 mg/kg oral gavage every other day for ten days

CC(C)NC[C@@H](C(=O)N1CCN(c2ncnc3c2[C@H](C)C[C@H]3O)CC1)c1ccc(Cl)cc1 [ipatasertib]
survival longer than vehicle, on average: no more than 10 days
